For at least one compound, name, drawing or mass did not settle the structure. Some compounds share one wording; it may come from a single statement.
Key:
β-glucocerebrosidase = biological target: T1, β-glucocerebrosidase (Homo sapiens, UniProt P04062); test: Measurement test of activation ability of β-glucocerebrosidase for epidermic cells; type: cell-based; conditions: human normal epidermic keratinocytes, final concentration 5 μmol/L, cultured 4 days; compared with ethanol alone (Comparative example 1); FIG. 1
T1 construct: supernatant by centrifugation was recovered as a crude enzyme solution; host or cells: human normal epidermic keratinocytes (Epidercell)
T1 sequence (P04062 40-536): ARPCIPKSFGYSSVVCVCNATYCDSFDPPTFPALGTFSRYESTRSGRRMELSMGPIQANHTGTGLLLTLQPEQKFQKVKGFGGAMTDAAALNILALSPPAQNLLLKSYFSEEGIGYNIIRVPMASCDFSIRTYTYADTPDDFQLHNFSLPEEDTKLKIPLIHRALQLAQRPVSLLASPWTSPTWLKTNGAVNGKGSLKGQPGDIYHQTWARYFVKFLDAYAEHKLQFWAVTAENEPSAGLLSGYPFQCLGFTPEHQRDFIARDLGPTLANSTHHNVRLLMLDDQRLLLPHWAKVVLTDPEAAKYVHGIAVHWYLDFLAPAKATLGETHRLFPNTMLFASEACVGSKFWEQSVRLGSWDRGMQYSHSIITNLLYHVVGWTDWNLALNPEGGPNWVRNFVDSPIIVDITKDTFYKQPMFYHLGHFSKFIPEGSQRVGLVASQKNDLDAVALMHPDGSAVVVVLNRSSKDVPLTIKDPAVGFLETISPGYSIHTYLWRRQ

[1] = tested on: back skin of hair-less mouse; test: Rough skin recovery test with mouse (TEWL after UVB irradiation); type: in vivo

## CCCCCCCCCCCCCCCCCC(=O)N[C@@H](CS[C@@H]1OC(CO)[C@H](O)[C@H](O)C1O)C(=O)NCCCCCCCCCCCCCC (stereo partly drawn) [Example 1, N-[2-β-D-galactopyranosylthio-1-(tetradecylcarbamoyl)ethyl]octadecanoylamide]
β-glucocerebrosidase
  β-glucocerebrosidase activation effects: activation effects were admitted

## CCCCCCCCCCCCCCCCCC(=O)NCCO[C@@H]1OC(CO)[C@H](O)[C@H](O)C1O (stereo partly drawn) [Example 2, N-[2-(β-D-galactopyranosyloxy)ethyl]octadecanoylamide]
β-glucocerebrosidase
  β-glucocerebrosidase activation effects: activation effects were admitted

## CCCCCCCCCCCCCCCCCC(=O)N[C@@H](CO[C@@H]1OC(CO)[C@H](O)[C@H](O)C1O)C(=O)NCCCCCC (stereo partly drawn) [Example 4, N-[2-(β-D-galactopyranosyloxy)-1-(hexylcarbamoyl)ethyl]octadecanoylamide]
β-glucocerebrosidase
  β-glucocerebrosidase activation effects: activation effects were admitted
[1]; concentration of 1.0% in propylene glycol:ethanol=3:7, coated on back skin 5 times per week for 4 weeks, UVB 0.15 J/cm2, 3 and 4 days after irradiation, p<0.01 (Dunnett), FIG. 2 and FIG. 3
  value of TEWL (transepidermal water loss) as compared to base material alone: significantly reduced
[1]; concentration of 1.0%, hair-less mouse, rough skin due to UVB
  rough skin recovery: recovered

Source: patent US20070111951A1, “Novel galactosylceramide analogues, and beta-glucocerebrosidase activator, external skin preparations and method of activating beta-glucocerebrosidase using the same” (KAO CORPORATION, priority 2001, published 2007)
